From paper PMC9309721
These are yes or no findings as the source states them, for the method shown. Binding seen in cells or lysates may run through a third protein. Some entries that bind do so weakly or less than the wild type.

Chains of the proteins cited; added tags and fusions are not shown. Lines headed by an entry give the natural chain unless they say otherwise; changes in a name come on top.
UniProt Q00613: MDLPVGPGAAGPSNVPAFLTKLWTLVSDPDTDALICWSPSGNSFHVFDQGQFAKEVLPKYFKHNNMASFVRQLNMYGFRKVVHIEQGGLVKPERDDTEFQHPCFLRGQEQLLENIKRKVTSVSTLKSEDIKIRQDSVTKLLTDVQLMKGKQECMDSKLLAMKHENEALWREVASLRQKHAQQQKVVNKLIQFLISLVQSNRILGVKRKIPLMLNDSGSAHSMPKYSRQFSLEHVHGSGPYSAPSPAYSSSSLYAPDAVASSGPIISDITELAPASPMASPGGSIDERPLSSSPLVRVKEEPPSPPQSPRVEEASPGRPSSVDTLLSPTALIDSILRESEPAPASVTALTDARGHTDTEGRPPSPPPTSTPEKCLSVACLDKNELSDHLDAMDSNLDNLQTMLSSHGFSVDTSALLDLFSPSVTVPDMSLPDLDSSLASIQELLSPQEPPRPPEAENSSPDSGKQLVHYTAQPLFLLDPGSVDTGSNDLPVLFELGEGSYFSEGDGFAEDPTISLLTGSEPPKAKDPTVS
UniProt P50750: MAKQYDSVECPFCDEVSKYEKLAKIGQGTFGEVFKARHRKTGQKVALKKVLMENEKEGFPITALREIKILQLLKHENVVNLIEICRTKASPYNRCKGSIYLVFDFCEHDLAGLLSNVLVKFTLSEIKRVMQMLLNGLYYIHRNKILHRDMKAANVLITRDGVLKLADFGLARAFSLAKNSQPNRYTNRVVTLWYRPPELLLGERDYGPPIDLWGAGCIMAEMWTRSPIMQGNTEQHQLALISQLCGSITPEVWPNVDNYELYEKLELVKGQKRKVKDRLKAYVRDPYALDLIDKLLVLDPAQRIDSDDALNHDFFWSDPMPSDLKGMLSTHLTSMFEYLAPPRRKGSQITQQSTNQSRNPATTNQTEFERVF
UniProt Q00403: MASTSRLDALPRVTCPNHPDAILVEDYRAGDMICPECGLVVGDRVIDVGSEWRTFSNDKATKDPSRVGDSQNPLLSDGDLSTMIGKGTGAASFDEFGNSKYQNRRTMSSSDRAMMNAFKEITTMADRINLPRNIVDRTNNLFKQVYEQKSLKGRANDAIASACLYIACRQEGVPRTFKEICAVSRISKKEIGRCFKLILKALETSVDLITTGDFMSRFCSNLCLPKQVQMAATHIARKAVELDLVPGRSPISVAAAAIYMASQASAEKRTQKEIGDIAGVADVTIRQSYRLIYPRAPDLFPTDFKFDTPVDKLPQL

What was measured:
[1] = target: FLAG-tagged WT-HSF1 (human) (UniProt Q00613); assay: co-IP; HEK-293 cells transfected for 48 h with FLAG-tagged WT or mutant HSF1; lysates in IP lysis buffer (20 mM Tris, 150 mM NaCl, 1 mM EDTA, 1 mM EGTA, 1% Triton X-100) immunoprecipitated with FLAG resin beads or control mouse IgG beads; immunoblot
[2] = target: FLAG-tagged T527A-HSF1 (human) (UniProt Q00613); assay: as above
[3] = target: FLAG-tagged WT-HSF1 (human) (UniProt Q00613); assay: cross-linking + SEC; HEK-293 cells expressing WT-HSF1 without AKT1, fixed with EGS; RIPA lysate on Superdex 200 Increase 10/300 GL in 50 mM Tris pH 8.0, 150 mM NaCl, 1% NP-40, 4 °C; fractions immunoblotted for HSF1
T142A-HSF1 (human) [4] = target: T142A-HSF1 (human) (UniProt Q00613); assay: cross-linking; HEK-293 cells transfected for 48 h with WT- or T142A-HSF1 with or without AKT1 or CK2; cells fixed with 1 mM EGS for 30 min at RT, quenched with 10 mM Tris pH 7.5, RIPA lysate, SDS/PAGE, immunoblot for HSF1 trimers
T142A-HSF1 (human) [5] = target: T142A-HSF1 (human) (UniProt Q00613); assay: cross-linking + SEC; HEK-293 cells co-expressing AKT1 and WT- or T142A-HSF1, fixed with EGS; RIPA lysate on Superdex 200 Increase 10/300 GL in 50 mM Tris pH 8.0, 150 mM NaCl, 1% NP-40, 4 °C; fractions immunoblotted for HSF1

| binding [1] | binding [2] | binding (T142A-HSF1 (human) [4]) | binding (T142A-HSF1 (human) [5]) | Substance | binding [3] |
| --- | --- | --- | --- | --- | --- |
| binds | no binding | – | – | CDK9 (from UniProt P50750 1-372) | – |
| – | – | – | – | FLAG-tagged WT-HSF1 (from UniProt Q00613 1-529) | no binding (condition: cells without co-expressed AKT1) |
| – | – | no binding | no binding | T142A-HSF1 (from UniProt Q00613 1-529) | – |
| binds | no binding | – | – | TFIIB (from UniProt Q00403 1-316) | – |
